Sequences of proteins named here, by UniProt entry; tags and fusion partners are left off. A change or cut given only in a name is not applied to a line headed by its entry.
UniProt Q03135: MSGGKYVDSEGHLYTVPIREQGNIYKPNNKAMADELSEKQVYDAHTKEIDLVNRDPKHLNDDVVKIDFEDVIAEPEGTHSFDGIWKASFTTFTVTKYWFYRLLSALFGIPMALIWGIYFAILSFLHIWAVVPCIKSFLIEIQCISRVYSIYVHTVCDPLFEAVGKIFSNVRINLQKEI
UniProt Q14457: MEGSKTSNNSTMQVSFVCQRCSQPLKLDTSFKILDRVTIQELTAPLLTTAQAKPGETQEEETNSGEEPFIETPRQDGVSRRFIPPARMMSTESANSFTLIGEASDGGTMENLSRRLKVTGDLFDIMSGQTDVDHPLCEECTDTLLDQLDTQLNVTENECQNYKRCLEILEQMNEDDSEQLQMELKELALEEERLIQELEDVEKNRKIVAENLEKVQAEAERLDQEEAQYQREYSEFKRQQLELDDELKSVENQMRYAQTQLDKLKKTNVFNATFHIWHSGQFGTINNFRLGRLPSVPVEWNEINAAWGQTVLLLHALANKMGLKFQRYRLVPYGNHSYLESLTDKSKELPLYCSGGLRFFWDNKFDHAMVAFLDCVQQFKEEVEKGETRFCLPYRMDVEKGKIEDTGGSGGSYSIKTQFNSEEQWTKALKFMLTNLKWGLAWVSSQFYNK

According to publication PMC5520747:

Target: HA-tagged CAV1 (Caveolin1), full length (UniProt Q03135)
Experiment: co-IP; HEK293T transfected 24 h; IP with anti-HA antibody (CAV1-HA variant as bait), western blot; lysis in modified RIPA (10 mM Tris-HCl, 150 mM NaCl, 5 mM EDTA, 1 mM Na3VO4, 1% CHAPS); cells untreated or treated with 1 mM H2O2 up to 30 min

binding: binds
Substance: BECN1ΔCCD-Flag (from UniProt Q14457)

No constants are given. Whether binding was seen depends on the method and setting. In cells and extracts the contact can be indirect. Binding calls can cover weak binding; strength is not graded here.
